Some of the results follow.

Chains of the proteins cited; added tags and fusions are not shown. Lines headed by an entry give the natural chain unless they say otherwise; changes in a name come on top.
UniProt P27449, whole entry, looked up: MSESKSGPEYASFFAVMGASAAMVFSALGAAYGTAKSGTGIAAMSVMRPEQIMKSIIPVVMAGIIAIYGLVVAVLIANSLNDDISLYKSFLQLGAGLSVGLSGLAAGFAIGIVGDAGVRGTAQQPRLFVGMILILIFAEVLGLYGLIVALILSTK
UniProt P14415, whole entry, looked up: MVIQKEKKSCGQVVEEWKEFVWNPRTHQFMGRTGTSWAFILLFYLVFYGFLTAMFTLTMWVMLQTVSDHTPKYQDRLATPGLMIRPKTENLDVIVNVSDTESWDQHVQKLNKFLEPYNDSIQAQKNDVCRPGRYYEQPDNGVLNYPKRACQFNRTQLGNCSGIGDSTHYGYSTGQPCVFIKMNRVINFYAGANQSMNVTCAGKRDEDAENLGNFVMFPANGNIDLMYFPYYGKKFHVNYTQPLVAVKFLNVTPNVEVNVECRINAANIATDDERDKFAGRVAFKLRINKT
UniProt Q8NHH9: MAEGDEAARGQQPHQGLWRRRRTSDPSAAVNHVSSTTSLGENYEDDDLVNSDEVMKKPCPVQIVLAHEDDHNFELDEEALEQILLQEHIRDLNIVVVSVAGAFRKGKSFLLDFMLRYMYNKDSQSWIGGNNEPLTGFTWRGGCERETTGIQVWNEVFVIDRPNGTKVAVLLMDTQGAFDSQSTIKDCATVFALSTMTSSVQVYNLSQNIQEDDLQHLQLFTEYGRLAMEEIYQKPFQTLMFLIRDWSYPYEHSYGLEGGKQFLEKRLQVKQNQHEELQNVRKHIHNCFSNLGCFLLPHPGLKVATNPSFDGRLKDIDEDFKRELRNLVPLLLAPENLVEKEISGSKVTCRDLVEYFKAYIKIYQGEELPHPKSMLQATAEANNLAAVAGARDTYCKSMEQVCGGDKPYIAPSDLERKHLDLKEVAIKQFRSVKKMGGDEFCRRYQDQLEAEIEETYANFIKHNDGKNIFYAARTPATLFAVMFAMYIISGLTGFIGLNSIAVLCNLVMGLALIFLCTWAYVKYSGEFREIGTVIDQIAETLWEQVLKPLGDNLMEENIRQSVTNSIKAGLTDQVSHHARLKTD
UniProt Q9NWX5: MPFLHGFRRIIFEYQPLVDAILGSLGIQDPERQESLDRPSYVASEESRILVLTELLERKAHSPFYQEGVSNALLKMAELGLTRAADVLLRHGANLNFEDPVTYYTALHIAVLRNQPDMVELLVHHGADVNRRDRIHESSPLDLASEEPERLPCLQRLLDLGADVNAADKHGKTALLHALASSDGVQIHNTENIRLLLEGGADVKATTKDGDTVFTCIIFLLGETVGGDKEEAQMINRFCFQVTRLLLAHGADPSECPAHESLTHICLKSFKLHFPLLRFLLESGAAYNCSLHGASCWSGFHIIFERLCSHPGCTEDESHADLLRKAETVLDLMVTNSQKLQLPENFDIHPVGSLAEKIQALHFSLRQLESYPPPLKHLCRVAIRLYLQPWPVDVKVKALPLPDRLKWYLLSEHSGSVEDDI
UniProt Q96KC2: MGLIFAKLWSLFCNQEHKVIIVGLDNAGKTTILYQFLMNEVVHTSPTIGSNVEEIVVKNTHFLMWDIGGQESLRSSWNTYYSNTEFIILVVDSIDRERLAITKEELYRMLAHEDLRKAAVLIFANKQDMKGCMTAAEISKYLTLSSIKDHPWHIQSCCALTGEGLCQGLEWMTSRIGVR
UniProt P15289: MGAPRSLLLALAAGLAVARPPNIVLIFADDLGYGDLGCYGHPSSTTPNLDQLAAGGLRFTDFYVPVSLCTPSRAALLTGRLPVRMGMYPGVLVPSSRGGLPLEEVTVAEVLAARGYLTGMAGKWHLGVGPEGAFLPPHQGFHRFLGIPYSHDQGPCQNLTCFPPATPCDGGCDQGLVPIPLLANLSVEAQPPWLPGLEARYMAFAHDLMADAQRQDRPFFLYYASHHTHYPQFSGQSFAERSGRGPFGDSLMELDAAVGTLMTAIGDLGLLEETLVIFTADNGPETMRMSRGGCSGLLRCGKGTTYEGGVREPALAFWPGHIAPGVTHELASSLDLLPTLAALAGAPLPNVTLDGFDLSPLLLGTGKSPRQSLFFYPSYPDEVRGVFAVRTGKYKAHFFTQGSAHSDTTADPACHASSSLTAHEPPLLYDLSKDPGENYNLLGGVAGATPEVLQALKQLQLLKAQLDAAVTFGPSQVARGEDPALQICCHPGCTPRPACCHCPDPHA
UniProt Q8IXJ9: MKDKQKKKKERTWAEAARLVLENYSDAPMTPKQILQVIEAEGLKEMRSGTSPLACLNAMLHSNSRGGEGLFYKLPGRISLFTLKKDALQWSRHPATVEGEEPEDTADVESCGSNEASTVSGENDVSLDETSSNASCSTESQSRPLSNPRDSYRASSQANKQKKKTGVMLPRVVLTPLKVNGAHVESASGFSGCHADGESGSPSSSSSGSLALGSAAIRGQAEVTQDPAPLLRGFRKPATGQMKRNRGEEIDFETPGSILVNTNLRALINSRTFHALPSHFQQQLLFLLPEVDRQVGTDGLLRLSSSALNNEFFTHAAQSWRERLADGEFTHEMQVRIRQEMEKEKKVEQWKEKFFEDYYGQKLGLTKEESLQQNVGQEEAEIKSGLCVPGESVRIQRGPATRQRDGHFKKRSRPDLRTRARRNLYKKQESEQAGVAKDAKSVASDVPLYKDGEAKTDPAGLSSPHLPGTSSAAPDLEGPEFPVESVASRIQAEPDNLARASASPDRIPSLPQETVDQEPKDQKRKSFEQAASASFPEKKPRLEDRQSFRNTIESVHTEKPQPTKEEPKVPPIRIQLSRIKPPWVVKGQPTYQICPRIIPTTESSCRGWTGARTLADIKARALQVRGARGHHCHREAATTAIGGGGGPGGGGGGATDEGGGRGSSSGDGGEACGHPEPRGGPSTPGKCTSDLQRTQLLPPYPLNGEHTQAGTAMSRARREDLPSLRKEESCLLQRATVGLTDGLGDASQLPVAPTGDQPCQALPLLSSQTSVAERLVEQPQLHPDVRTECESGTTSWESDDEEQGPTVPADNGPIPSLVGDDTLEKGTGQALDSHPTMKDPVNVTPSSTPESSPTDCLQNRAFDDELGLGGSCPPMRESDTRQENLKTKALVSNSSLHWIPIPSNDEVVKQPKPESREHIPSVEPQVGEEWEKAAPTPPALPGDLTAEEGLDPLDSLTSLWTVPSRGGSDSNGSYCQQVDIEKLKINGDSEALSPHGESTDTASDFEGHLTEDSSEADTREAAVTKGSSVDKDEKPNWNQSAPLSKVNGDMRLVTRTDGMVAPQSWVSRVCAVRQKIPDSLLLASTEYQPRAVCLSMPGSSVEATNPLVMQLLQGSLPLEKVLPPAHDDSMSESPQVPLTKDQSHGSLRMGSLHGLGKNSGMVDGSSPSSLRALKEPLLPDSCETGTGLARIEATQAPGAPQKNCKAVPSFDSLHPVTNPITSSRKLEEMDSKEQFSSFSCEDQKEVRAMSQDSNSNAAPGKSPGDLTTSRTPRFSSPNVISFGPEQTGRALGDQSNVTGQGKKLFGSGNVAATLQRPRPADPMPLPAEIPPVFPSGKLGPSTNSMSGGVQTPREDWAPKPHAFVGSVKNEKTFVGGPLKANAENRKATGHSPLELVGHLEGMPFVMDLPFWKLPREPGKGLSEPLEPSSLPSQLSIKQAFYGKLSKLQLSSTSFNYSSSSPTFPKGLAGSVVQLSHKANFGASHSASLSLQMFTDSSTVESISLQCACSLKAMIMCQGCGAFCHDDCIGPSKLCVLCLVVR
UniProt Q8N5I2: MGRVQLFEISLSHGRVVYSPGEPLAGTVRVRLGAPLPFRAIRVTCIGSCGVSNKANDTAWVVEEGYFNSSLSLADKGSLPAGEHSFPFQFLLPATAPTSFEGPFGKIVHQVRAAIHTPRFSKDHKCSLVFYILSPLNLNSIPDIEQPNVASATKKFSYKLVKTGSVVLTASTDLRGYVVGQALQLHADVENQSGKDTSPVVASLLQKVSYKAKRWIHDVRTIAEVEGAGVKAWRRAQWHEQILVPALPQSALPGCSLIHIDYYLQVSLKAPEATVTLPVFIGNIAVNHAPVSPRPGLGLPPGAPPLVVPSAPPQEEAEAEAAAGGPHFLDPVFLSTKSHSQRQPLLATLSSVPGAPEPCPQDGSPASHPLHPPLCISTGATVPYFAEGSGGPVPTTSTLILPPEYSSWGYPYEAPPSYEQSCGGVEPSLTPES
UniProt P00966: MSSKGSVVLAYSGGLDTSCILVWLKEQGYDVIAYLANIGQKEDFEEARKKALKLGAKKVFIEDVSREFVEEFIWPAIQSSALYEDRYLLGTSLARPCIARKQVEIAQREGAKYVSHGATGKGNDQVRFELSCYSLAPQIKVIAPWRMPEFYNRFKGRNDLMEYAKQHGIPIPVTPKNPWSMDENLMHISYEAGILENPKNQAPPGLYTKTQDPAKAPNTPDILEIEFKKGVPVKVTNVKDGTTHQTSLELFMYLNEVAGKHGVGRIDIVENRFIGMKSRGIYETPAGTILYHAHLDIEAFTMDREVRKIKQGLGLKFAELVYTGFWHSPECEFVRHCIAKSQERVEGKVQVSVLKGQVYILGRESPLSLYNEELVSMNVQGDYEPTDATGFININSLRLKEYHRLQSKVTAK
UniProt Q6ZNE5, whole entry, looked up: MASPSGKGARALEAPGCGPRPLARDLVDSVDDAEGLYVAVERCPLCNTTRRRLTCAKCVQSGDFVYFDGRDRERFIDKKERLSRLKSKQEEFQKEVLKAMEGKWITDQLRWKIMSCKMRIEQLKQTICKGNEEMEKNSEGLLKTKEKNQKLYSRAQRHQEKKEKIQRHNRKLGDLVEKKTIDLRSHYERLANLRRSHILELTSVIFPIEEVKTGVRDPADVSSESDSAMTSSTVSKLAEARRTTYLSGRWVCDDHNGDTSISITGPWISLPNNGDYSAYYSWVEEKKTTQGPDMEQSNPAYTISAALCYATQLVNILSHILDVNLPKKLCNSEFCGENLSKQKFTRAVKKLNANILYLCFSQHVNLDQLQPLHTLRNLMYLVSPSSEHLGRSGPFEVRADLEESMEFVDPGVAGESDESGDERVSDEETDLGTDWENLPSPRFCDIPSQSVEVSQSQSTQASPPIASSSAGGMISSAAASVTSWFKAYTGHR
UniProt O94817, whole entry, looked up: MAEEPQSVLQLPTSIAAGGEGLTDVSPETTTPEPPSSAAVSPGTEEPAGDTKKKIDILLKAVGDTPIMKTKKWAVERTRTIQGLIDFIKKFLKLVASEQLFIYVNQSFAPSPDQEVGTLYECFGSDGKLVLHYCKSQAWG
UniProt Q9NWL6: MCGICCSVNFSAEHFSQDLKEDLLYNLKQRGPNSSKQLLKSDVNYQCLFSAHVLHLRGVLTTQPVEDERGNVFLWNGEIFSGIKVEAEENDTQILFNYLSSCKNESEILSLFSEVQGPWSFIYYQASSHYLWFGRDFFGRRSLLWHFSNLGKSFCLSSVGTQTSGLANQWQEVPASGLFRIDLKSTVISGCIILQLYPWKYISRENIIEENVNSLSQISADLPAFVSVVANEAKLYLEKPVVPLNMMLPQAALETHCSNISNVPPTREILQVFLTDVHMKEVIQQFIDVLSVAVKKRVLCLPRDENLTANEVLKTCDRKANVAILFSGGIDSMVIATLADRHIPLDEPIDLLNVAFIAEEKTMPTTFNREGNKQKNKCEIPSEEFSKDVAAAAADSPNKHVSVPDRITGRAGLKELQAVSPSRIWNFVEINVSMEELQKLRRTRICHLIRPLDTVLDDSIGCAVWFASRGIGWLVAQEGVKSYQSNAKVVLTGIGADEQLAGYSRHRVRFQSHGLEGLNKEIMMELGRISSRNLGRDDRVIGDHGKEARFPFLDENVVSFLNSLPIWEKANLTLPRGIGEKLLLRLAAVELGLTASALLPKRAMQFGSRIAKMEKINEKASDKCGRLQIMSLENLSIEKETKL
UniProt Q9NVP2, whole entry, looked up: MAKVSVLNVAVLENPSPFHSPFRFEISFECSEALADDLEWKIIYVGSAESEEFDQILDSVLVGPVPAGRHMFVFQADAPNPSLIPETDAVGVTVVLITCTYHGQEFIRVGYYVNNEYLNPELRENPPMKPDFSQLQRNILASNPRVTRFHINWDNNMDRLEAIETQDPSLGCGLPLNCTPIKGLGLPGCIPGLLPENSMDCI
UniProt Q3SXY8: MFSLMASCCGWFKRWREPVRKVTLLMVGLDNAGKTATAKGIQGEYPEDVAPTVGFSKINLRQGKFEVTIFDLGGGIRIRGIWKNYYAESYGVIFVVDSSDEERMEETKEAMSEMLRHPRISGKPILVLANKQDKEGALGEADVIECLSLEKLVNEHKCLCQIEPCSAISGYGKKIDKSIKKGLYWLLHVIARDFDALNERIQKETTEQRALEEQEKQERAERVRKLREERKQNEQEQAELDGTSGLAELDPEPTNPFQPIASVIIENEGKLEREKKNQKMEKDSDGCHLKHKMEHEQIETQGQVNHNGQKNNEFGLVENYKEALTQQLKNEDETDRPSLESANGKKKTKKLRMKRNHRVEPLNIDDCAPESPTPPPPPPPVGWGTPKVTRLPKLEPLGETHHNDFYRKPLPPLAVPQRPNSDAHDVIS

Compound in one experiment: CC1=C(C=C(C=C1)NC(=O)C2=CC(=CC=C2)C(C)(C)C#N)NC3=CC4=C(C=C3)N=CN(C4=O)C
The experiment in a line: log2 fold change, soluble protein after heating vs DMSO (PISA); higher = thermal stabilisation; K562 cells, 10 uM, 30 min; active = over 0.2 and 3.5 SD of the protein, either way, in both replicates (recomputed). An outline of the steps:
(§1)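 K562 cells at 2×10^6 cells/mL were exposed to 10 μM compound for 30 min, then aliquots were heated for 3 min across 48°C-58°C, pooled, and extracted in PBS containing 0.5% NP-40 at 4°C. The supernatant after 21,000xg for 90 min was taken as soluble protein and measured by TMTpro 16plex LC-MS/MS with channel sums equalised. Thermal stability is reported relative to control samples, with values from duplicates. Fold changes are given on a log2 scale.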
As to ATP6V0C (UniProt P27449), the log2 fold change was inactive: 0.219.

Take ATPSCKMT (UniProt Q6P4H8): the log2 fold change was inactive: 0.118. Still for that read-out and setting: under ATP1B2 (UniProt P14415) stands inactive: 0.16; under ATL2 (UniProt Q8NHH9), inactive: 0.022.

As for ATF3 (UniProt P18847), the log2 fold change was inactive: 0.075. In the case of ASB6 (UniProt Q9NWX5), the log2 fold change is inactive: -0.085. Still for that read-out and setting: under ARL5B (UniProt Q96KC2) stands inactive: 0.121. On the same count and under the same terms, the same measure for ARSA (UniProt P15289): inactive: -0.044; for ASXL1 (UniProt Q8IXJ9): inactive: 0.139; for ARRDC1 (UniProt Q8N5I2): inactive: -0.061.

Turning to ARL5A (UniProt Q9Y689), the log2 fold change was inactive: -0.076.

ATF7 isoform 6 (UniProt P17544): the log2 fold change was inactive: 0.465.

On to ATP1B1 (UniProt P05026), for which the log2 fold change was inactive: -0.053.

With ASS1 (UniProt P00966), the log2 fold change was inactive: -0.073. Still for that read-out and setting: under ATG14 (UniProt Q6ZNE5) stands inactive: -0.075; under ASCC2 (UniProt Q9H1I8), inactive: -0.039. Take ATG12 (UniProt O94817): the log2 fold change was inactive: 0.008. Regarding ATP5F1B (UniProt F8W0P7), the log2 fold change is inactive: 0.147. Same read-out and setting: the same measure for ATP2B2 (UniProt Q01814): inactive: 0.245. On the same count and under the same terms, the same measure for ASNSD1 (UniProt Q9NWL6): inactive: -0.01. On the same count and under the same terms, the same measure for ASF1B (UniProt Q9NVP2): inactive: -0.029; for ATP5F1B (UniProt H0YI37): inactive: -0.234; for ARL13B (UniProt Q3SXY8): inactive: 0.048. For the target ATF1 (UniProt P18846), the log2 fold change is inactive: -0.066.

Compound in another experiment: CC1=C(C=C(C=C1)NC(=O)C2=CC(=CC=C2)N(C)C)NC(=O)C3=CC=C(C=C3)O
The experiment is described as above. An outline of the steps:
as §1
Turning to ATP1B2 (UniProt P14415), the log2 fold change was inactive: -0.062.

On to ATL2 (UniProt Q8NHH9), for which the log2 fold change was inactive: -0.107. The same measure, in the same setting: under ATF3 (UniProt P18847) stands inactive: 0.033; under ASB6 (UniProt Q9NWX5), inactive: -0.033; under ARPIN isoform 2 (UniProt Q7Z6K5), inactive: -0.054. Same read-out and setting: under ARSA (UniProt P15289) stands inactive: -0.095; under ARRDC1 (UniProt Q8N5I2), inactive: 0. Same read-out and setting: the same measure for ARL5A (UniProt Q9Y689): inactive: 0.043; for ATF7 isoform 6 (UniProt P17544): inactive: -0.163. For ATP1B1 (UniProt P05026), the log2 fold change was inactive: -0.044. Regarding ASS1 (UniProt P00966), the log2 fold change is inactive: -0.015. The same measure, in the same setting: the same measure for ASCC2 (UniProt Q9H1I8): inactive: -0.168; for ARL6 isoform 2 (UniProt Q9H0F7): inactive: -0.007.

ATP5F1B (UniProt F8W0P7): the log2 fold change was inactive: -0.051. Still for that read-out and setting: under ARRB1 isoform 2 (UniProt P49407) stands inactive: 0.031; under ASF1B (UniProt Q9NVP2), inactive: -0.058. Consider ARL13B (UniProt Q3SXY8), for which the log2 fold change was inactive: 0.045.

The record behind these values is the supplement of paper PMC10849652.
